Paper PMC7367873, “Dissecting the sequence determinants for dephosphorylation by the catalytic subunits of phosphatases PP1 and PP2A” (Nature Communications, 2020)

Tested on: PP1c/PP2Ac holoenzyme formation
Assay: Gel-filtration analysis of holoenzyme formation in HeLa Kyoto lysate
Assay type: binding, human
Details: Superdex 200 Increase 10/300, 1 µM phosphatase with HeLa Kyoto lysate; MW 30–700 kDa; carried out once

Substance	association with higher MW complexes / elution shift in gel filtration
PP1c: recombinant catalytic subunit of PP1	only a very small fraction of PP1c potentially binding to regulators
PP2Ac: His-tagged recombinant PPP2CA ΔL309, purchased from Cayman Chemical	unassociated with higher MW complexes
